Laboratory results from article PMC8748873.
Substitutions are numbered along the chain they refer to. No constants are given. Whether binding was seen depends on the method and setting. In cells and extracts the contact can be indirect. For part of these data: A result given as binding can be weak or reduced; the word gives no strength. Values belong to the molecule of their own block, whether it stands above or below them.

How the values were obtained:
[1] = molecular target: T1, RONIN F80L (mouse (endogenous in embryonic brain)) (UniProt Q9JJD0); assay: co-IP; endogenous proteins from embryonic mouse brain lysate (wild type, Hcfc1 A115V/Y or Ronin F80L/F80L); 500 ug lysate with 1 ug antibody overnight at 4 °C, Protein A/G magnetic beads, western blot
T1 sequence: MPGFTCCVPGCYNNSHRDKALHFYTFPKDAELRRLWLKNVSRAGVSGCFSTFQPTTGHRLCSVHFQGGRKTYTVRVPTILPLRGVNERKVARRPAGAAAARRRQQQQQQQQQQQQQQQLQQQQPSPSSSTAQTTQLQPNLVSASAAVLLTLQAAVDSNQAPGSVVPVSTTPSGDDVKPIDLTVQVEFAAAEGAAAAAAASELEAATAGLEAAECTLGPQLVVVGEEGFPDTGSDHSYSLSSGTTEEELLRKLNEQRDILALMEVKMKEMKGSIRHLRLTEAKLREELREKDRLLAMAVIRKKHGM

[2] = molecular target: T2, RONIN (THAP Domain Containing 11) (mouse (endogenous in embryonic brain)) (UniProt Q9JJD0); assay: co-IP; endogenous proteins from O9-1 cranial neural crest cell line lysate; 500 ug lysate with 1 ug antibody overnight at 4 °C, Protein A/G magnetic beads, western blot
T2 sequence: T1 sequence with L80F

[3] = molecular target: Host Cell Factor C1 (HCFC1) (mouse (endogenous in embryonic brain)); assay: co-IP; endogenous proteins from embryonic mouse brain and retinae; antibody overnight at 4 °C, Protein A/G magnetic beads, western blot

binding [1]: binds | binding [2]: binds
Molecule: Host Cell Factor C1 (HCFC1) (mouse (endogenous in embryonic brain))

binding [3]: no binding
B1: ZNF143 (protein, UniProt O70230 1-638)
chain: MLLAQINRDSQGMTEFPGGGMEAQHVTLCLTEAVTVADGDNLENMEGVSLQAVTLADGSTAYIQHNSKDGRLIDGQVIQLEDGSAAYVQHVPIPKSTGDSLRLEDGQAVQLEDGTTAFIHHTSKDSYDQSSLQAVQLEDGTTAYIHHAVQVPQSDTILAIQADGTVAGLHTGDATIDPDTISALEQYAAKVSIDGSDGVTSTGMIGENEQEKKMQIVLQGHATRVTPKSQQSGEKAFRCKYDGCGKLYTTAHHLKVHERSHTGDRPYQCEHSGCGKAFATGYGLKSHFRTHTGEKPYRCSEDNCTKSFKTSGDLQKHIRTHTGERPFKCPIEGCGRSFTTSNIRKVHIRTHTGERPYYCTEPGCGRAFASATNYKNHVRIHTGEKPYVCTVPGCDKRFTEYSSLYKHHVVHTHSKPYNCNHCGKTYKQISTLAMHKRTAHNDTEPIEEEQEAFFEPPPGQGDDVLKGSQITYVTGVDGEDIVSTQVATVTQSGLSQQVTLISQDGTQHVNISQADMQAIGNTITMVTQDGTPITVPTHDAVISSAGTHSVAMVTAEGTEGQQVAIVAQDLAAFHTASSEMGHQQHSHHLVTTETRPLTLVATSNGTQIAVQLGEQPSLEEAIRIASRIQQGETPGLDD
